In one experiment the target is ARNO (cytohesin2) (UniProt Q99418). Put plainly: pull-down; purified GEF (SopE, ARNO or ARNO E156D) bound on silica beads coated with a phospholipid bilayer (PL beads), incubated in porcine brain extract with GTPγS (20 min, RT); beads isolated at 1000 g, washed ten times in HKSM; recruited proteins analysed by SDS-PAGE, mass spectrometry and immunoblotting; only the target purified. Background: In western blotting, separated proteins are transferred to a membrane and probed.

The chains behind the UniProt entries cited, without tags or fusion partners.
UniProt Q99418: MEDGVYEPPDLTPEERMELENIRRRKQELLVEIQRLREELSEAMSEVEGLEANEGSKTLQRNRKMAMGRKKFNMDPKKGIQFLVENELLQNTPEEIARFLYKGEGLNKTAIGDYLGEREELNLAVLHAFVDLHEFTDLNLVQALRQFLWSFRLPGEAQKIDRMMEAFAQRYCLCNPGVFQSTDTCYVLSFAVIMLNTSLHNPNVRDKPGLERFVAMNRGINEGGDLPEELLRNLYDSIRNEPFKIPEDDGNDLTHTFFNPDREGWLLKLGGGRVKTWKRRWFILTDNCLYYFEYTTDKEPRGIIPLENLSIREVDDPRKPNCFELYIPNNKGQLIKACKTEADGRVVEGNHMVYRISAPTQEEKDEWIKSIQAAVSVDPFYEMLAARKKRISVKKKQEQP
UniProt P84077: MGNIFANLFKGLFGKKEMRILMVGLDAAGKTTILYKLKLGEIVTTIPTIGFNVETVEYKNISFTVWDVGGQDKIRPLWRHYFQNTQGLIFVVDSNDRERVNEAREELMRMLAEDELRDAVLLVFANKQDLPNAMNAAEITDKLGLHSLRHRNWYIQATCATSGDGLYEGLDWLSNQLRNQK
UniProt Q007T5: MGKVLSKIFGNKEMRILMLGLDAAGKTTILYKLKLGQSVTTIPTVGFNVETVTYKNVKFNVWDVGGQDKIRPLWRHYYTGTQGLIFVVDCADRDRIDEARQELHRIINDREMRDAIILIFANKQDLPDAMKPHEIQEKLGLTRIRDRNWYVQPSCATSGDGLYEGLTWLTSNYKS
UniProt Q007T2: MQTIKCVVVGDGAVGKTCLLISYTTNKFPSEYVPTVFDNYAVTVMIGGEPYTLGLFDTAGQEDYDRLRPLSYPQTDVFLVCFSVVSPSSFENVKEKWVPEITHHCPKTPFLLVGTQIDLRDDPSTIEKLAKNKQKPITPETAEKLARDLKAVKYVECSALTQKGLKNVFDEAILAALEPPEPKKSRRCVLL

Experiment [1] concerns the target T1, Salmonella guanine nucleotide exchange factor (GEF) SopE (Salmonella enterica serovar Typhimurium) (UniProt O52623).
T1 sequence: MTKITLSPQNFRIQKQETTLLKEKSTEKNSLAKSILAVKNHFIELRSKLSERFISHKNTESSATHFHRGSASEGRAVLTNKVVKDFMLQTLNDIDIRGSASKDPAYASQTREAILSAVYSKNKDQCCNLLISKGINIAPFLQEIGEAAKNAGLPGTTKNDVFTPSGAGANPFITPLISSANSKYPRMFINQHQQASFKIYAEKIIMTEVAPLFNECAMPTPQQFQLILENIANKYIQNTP
The description is as above.

Another experiment deals with HA-tagged Arf1 (UniProt P84077). As to the kind of experiment: co-IP; GAT assay: detergent-soluble fraction of HeLa cells expressing Arf1-HA (alone, with ARNO, infected with Salmonella strains, or treated with SecinH3) incubated with 50 μg purified GST-GGA3-GAT 1-313 (1 hr, 4°C); Arf1-HA precipitated with HA-agarose; immunoblot with anti-GST and anti-HA; only the binder purified.

These are yes or no findings as the source states them, for the method shown. In cells and extracts the contact can be indirect. Some results given as binding are weak or reduced against the parent protein; the word gives no strength. For some of these results: Where a sequence is shown, tags or fusion partners need not be part of it.

Arf6 (from UniProt Q007T5 1-175): in the experiment with ARNO (cytohesin2), the binding result is recorded as “binds”.

Take Cdc42 (from UniProt Q007T2 1-191): the binding result (in the experiment with ARNO (cytohesin2); in experiment [1]) was “binds” in each case.

B1: GST-GGA3-GAT^1-313 (domain or fragment, UniProt Q9NZ52 1-313)
chain: MAEAEGESLESWLNKATNPSNRQEDWEYIIGFCDQINKELEGPQIAVRLLAHKIQSPQEWEALQALTVLEACMKNCGRRFHNEVGKFRFLNELIKVVSPKYLGDRVSEKVKTKVIELLYSWTMALPEEAKIKDAYHMLKRQGIVQSDPPIPVDRTLIPSPPPRPKNPVFDDEEKSKLLAKLLKSKNPDDLQEANKLIKSMVKEDEARIQKVTKRLHTLEEVNNNVRLLSEMLLHYSQEDSSDGDRELMKELFDQCENKRRTLFKLASETEDNDNSLGDILQASDNLSRVINSYKTIIEGQVINGEVATLTLPD
In the case of B1, the binding entry with HA-tagged Arf1 is “binds”.
